Values quoted from earlier work in patent US9707231B2, “Compositions and methods for reduction of amyloid-beta load” (Modgene, LLC, priority 2011, dated 2017).
Like-named read-outs stand apart in the source and are kept apart here. For some assays here: The name of at least one read-out is uncertain. For some assays here: At least one structure is not confirmed: it was looked up by name or label, or the drawing left a doubt.

Key:
[1] = oral administration, adults; cited from earlier work
Aβ [2] = settings: intrathecal, implanted osmotic minipumps, guinea pigs; cited from earlier work
Aβ [3] = settings: APP-transfected neuroblastoma cells; cited from earlier work
Aβ [4] = settings: cultures of primary neurons, embryonic day 18 rats; cited from earlier work
Aβ [5] = settings: cell-free extracts of transfected cells; cited from earlier work

SMILES | time at which Cmax is achieved post-dose [1] | Aβ accumulation in brain (in words) (Aβ [2]) | production of Aβ (in words) (Aβ [3]) | production of Aβ (in words) (Aβ [4]) | production of Aβ (in words) (Aβ [5])
Cc1ccc(NC(=O)c2ccc(CN3CCN(C)CC3)cc2)cc1Nc1nccc(-c2cccnc2)n1 [imatinib] | 2 to 4 h | – | – | – | –
Cc1ccc(NC(=O)c2ccc(CN3CCN(C)CC3)cc2)cc1Nc1nccc(-c2cccnc2)n1 [STI-571] | – | decrease in Aβ accumulation in brain | potently reduces | reduce production of Aβ | potently reduces
